{"source": "ChEMBL document CHEMBL1157379", "about": "“Transcriptional response of Candida parapsilosis following exposure to farnesol” (2007)", "type_in_all_cases": "functional", "key": {"[1]": {"test_system": "Candida parapsilosis", "test": "Decrease in CGD gene ortholog accession number orf19.2455 expression in Candida parapsilosis CLIB214 at 50 uM after 2 hrs by microarray based transcriptional profiling relative to control"}, "[2]": {"test_system": "Candida parapsilosis", "test": "Increase in CGD gene ortholog accession number orf19.5533 expression in Candida parapsilosis CLIB214 at 50 uM after 2 hrs by microarray based transcriptional profiling relative to control"}, "[3]": {"test_system": "Candida parapsilosis", "test": "Decrease in CGD gene ortholog accession number orf19.4157 expression in Candida parapsilosis CLIB214 at 50 uM after 2 hrs by microarray based transcriptional profiling relative to control"}, "[4]": {"test_system": "Candida parapsilosis", "test": "Decrease in CGD gene ortholog accession number orf19.3806 expression in Candida parapsilosis CLIB214 at 50 uM after 2 hrs by microarray based transcriptional profiling relative to control"}, "[5]": {"test_system": "Candida parapsilosis", "test": "Decrease in CGD gene ortholog accession number orf19.2761 expression in Candida parapsilosis CLIB214 at 50 uM after 2 hrs by microarray based transcriptional profiling relative to control"}, "[6]": {"test_system": "Candida parapsilosis", "test": "Decrease in SCT2 gene expression in Candida parapsilosis CLIB214 at 50 uM after 2 hrs by microarray based transcriptional profiling relative to control"}, "[7]": {"test_system": "Candida parapsilosis", "test": "Increase in CGD gene ortholog accession number orf19.1864 expression in Candida parapsilosis CLIB214 at 50 uM after 2 hrs by microarray based transcriptional profiling relative to control"}, "[8]": {"test_system": "Candida parapsilosis", "test": "Decrease in CGD gene ortholog accession number orf19.3451 expression in Candida parapsilosis CLIB214 at 50 uM after 2 hrs by microarray based transcriptional profiling relative to control"}, "[9]": {"test_system": "Candida parapsilosis", "test": "Increase in ERG6 gene expression in Candida parapsilosis CLIB214 at 50 uM after 2 hrs by microarray based transcriptional profiling relative to control"}, "[10]": {"test_system": "Candida parapsilosis", "test": "Increase in CGD gene ortholog accession number orf19.457 expression in Candida parapsilosis CLIB214 at 50 uM after 2 hrs by microarray based transcriptional profiling relative to control"}, "[11]": {"test_system": "Candida parapsilosis", "test": "Decrease in CGD gene ortholog accession number orf19.804 (SGD ortholog YPR011C) expression in Candida parapsilosis CLIB214 at 50 uM after 2 hrs by microarray based transcriptional profiling relative to control"}, "[12]": {"test_system": "Candida parapsilosis", "test": "Decrease in CBF1 gene expression in Candida parapsilosis CLIB214 at 50 uM after 2 hrs by microarray based transcriptional profiling relative to control"}, "[13]": {"test_system": "Candida parapsilosis", "test": "Increase in DIP2 gene expression in Candida parapsilosis CLIB214 at 50 uM after 2 hrs by microarray based transcriptional profiling relative to control"}, "[14]": {"test_system": "Candida parapsilosis", "test": "Decrease in CGD gene ortholog accession number orf19.3446 expression in Candida parapsilosis CLIB214 at 50 uM after 2 hrs by microarray based transcriptional profiling relative to control"}, "[15]": {"test_system": "Candida parapsilosis", "test": "Increase in CGD gene ortholog accession number orf19.5617 expression in Candida parapsilosis CLIB214 at 50 uM after 2 hrs by microarray based transcriptional profiling relative to control"}, "[16]": {"test_system": "Candida parapsilosis", "test": "Increase in CGD gene ortholog accession number orf19.497 expression in Candida parapsilosis CLIB214 at 50 uM after 2 hrs by microarray based transcriptional profiling relative to control"}, "[17]": {"test_system": "Candida parapsilosis", "test": "Increase in CGD gene ortholog accession number orf19.2749 expression in Candida parapsilosis CLIB214 at 50 uM after 2 hrs by microarray based transcriptional profiling relative to control"}, "[18]": {"test_system": "Candida parapsilosis", "test": "Decrease in KIS2 gene expression in Candida parapsilosis CLIB214 at 50 uM after 2 hrs by microarray based transcriptional profiling relative to control"}, "[19]": {"test_system": "Candida parapsilosis", "test": "Increase in CGD gene ortholog accession number orf19.1541 expression in Candida parapsilosis CLIB214 at 50 uM after 2 hrs by microarray based transcriptional profiling relative to control"}, "[20]": {"test_system": "Candida parapsilosis", "test": "Decrease in MAF1 gene expression in Candida parapsilosis CLIB214 at 50 uM after 2 hrs by microarray based transcriptional profiling relative to control"}, "[21]": {"test_system": "Candida parapsilosis", "test": "Decrease in CGD gene ortholog accession number orf19.4903 expression in Candida parapsilosis CLIB214 at 50 uM after 2 hrs by microarray based transcriptional profiling relative to control"}, "[22]": {"test_system": "Candida parapsilosis", "test": "Increase in CGD gene ortholog accession number orf19.25 expression in Candida parapsilosis CLIB214 at 50 uM after 2 hrs by microarray based transcriptional profiling relative to control"}, "[23]": {"test_system": "Candida parapsilosis", "test": "Decrease in CGD gene ortholog accession number orf19.5040 expression in Candida parapsilosis CLIB214 at 50 uM after 2 hrs by microarray based transcriptional profiling relative to control"}, "[24]": {"test_system": "Candida parapsilosis", "test": "Increase in CGD gene ortholog accession number orf19.5771 expression in Candida parapsilosis CLIB214 at 50 uM after 2 hrs by microarray based transcriptional profiling relative to control"}, "[25]": {"test_system": "Candida parapsilosis", "test": "Increase in CGD gene ortholog accession number orf19.4133 expression in Candida parapsilosis CLIB214 at 50 uM after 2 hrs by microarray based transcriptional profiling relative to control"}, "[26]": {"test_system": "Candida parapsilosis", "test": "Increase in CGD gene ortholog accession number orf19.2324 expression in Candida parapsilosis CLIB214 at 50 uM after 2 hrs by microarray based transcriptional profiling relative to control"}, "[27]": {"test_system": "Candida parapsilosis", "test": "Decrease in CGD gene ortholog accession number orf19.6044 expression in Candida parapsilosis CLIB214 at 50 uM after 2 hrs by microarray based transcriptional profiling relative to control"}, "[28]": {"test_system": "Candida parapsilosis", "test": "Increase in CGD gene ortholog accession number orf19.6371 expression in Candida parapsilosis CLIB214 at 50 uM after 2 hrs by microarray based transcriptional profiling relative to control"}, "[29]": {"test_system": "Candida parapsilosis", "test": "Decrease in CGD gene ortholog accession number orf19.1362 expression in Candida parapsilosis CLIB214 at 50 uM after 2 hrs by microarray based transcriptional profiling relative to control"}, "[30]": {"test_system": "Candida parapsilosis", "test": "Increase in LAG41 gene expression in Candida parapsilosis CLIB214 at 50 uM after 2 hrs by microarray based transcriptional profiling relative to control"}, "[31]": {"test_system": "Candida parapsilosis", "test": "Decrease in PGA12 gene expression in Candida parapsilosis CLIB214 at 50 uM after 2 hrs by microarray based transcriptional profiling relative to control"}, "[32]": {"test_system": "Candida parapsilosis", "test": "Decrease in SAP5 gene expression in Candida parapsilosis CLIB214 at 50 uM after 2 hrs by microarray based transcriptional profiling relative to control"}, "[33]": {"test_system": "Candida parapsilosis", "test": "Increase in CGD gene ortholog accession number orf19.5399 expression in Candida parapsilosis CLIB214 at 50 uM after 2 hrs by microarray based transcriptional profiling relative to control"}, "[34]": {"test_system": "Candida parapsilosis", "test": "Decrease in CGD gene ortholog accession number orf19.4231 expression in Candida parapsilosis CLIB214 at 50 uM after 2 hrs by microarray based transcriptional profiling relative to control"}, "[35]": {"test_system": "Candida parapsilosis", "test": "Decrease in CGD gene ortholog accession number orf19.6071 expression in Candida parapsilosis CLIB214 at 50 uM after 2 hrs by microarray based transcriptional profiling relative to control"}, "[36]": {"test_system": "Candida parapsilosis", "test": "Decrease in PTR2 gene expression in Candida parapsilosis CLIB214 at 50 uM after 2 hrs by microarray based transcriptional profiling relative to control"}}, "note": "The source gives many values for each of these; only a part stands here."}
{"smiles": "CC(C)=CCC/C(C)=C/CC/C(C)=C/CO", "note": "[FARNESOL]", "values": [{"measurement": "fold change (FC)", "setting": "[1]", "value": 2.05}, {"measurement": "fold change (FC)", "setting": "[2]", "value": 2.13}, {"measurement": "fold change (FC)", "setting": "[3]", "value": 2.2}, {"measurement": "fold change (FC)", "setting": "[4]", "value": 1.8}, {"measurement": "fold change (FC)", "setting": "[5]", "value": 1.51}, {"measurement": "fold change (FC)", "setting": "[6]", "value": 1.91}, {"measurement": "fold change (FC)", "setting": "[7]", "value": 1.69}, {"measurement": "fold change (FC)", "setting": "[8]", "value": 1.94}, {"measurement": "fold change (FC)", "setting": "[9]", "value": 1.93}, {"measurement": "fold change (FC)", "setting": "[10]", "value": 1.5}, {"measurement": "fold change (FC)", "setting": "[11]", "value": 1.66}, {"measurement": "fold change (FC)", "setting": "[12]", "value": 1.5}, {"measurement": "fold change (FC)", "setting": "[13]", "value": 1.63}, {"measurement": "fold change (FC)", "setting": "[14]", "value": 2.07}, {"measurement": "fold change (FC)", "setting": "[15]", "value": 1.71}, {"measurement": "fold change (FC)", "setting": "[16]", "value": 2.26}, {"measurement": "fold change (FC)", "setting": "[17]", "value": 1.71}, {"measurement": "fold change (FC)", "setting": "[18]", "value": 1.69}, {"measurement": "fold change (FC)", "setting": "[19]", "value": 1.92}, {"measurement": "fold change (FC)", "setting": "[20]", "value": 2.14}, {"measurement": "fold change (FC)", "setting": "[21]", "value": 1.63}, {"measurement": "fold change (FC)", "setting": "[22]", "value": 1.59}, {"measurement": "fold change (FC)", "setting": "[23]", "value": 1.73}, {"measurement": "fold change (FC)", "setting": "[24]", "value": 1.59}, {"measurement": "fold change (FC)", "setting": "[25]", "value": 1.52}, {"measurement": "fold change (FC)", "setting": "[26]", "value": 1.68}, {"measurement": "fold change (FC)", "setting": "[27]", "value": 2.4}, {"measurement": "fold change (FC)", "setting": "[28]", "value": 1.56}, {"measurement": "fold change (FC)", "setting": "[29]", "value": 1.78}, {"measurement": "fold change (FC)", "setting": "[30]", "value": 1.89}, {"measurement": "fold change (FC)", "setting": "[31]", "value": 1.55}, {"measurement": "fold change (FC)", "setting": "[32]", "value": 1.93}, {"measurement": "fold change (FC)", "setting": "[33]", "value": 1.55}, {"measurement": "fold change (FC)", "setting": "[34]", "value": 1.96}, {"measurement": "fold change (FC)", "setting": "[35]", "value": 2.17}, {"measurement": "fold change (FC)", "setting": "[36]", "value": 1.81}]}
